Results are given in words; binding and its absence hold for the method and conditions named. Some entries that bind do so weakly or less than the wild type.

The chains behind the UniProt entries cited, without tags or fusion partners. Residues count along the entry.
UniProt P30405, residues 30-207: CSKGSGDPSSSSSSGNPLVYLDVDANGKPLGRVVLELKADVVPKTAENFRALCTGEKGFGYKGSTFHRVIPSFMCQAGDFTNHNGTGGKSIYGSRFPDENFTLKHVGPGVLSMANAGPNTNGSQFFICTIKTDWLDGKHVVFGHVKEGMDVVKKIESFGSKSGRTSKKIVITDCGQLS
UniProt P29117, residues 30-206: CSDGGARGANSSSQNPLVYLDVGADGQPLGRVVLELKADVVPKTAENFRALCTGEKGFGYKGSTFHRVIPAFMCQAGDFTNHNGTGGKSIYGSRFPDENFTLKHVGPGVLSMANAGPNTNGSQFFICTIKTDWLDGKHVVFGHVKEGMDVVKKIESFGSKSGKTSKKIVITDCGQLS

In assay [1] the target is T1, 17β-hydroxysteroid dehydrogenase type 10 of human cerebrospinal fluid (human (endogenous in cerebrospinal fluid)) (UniProt Q99714).
T1 sequence: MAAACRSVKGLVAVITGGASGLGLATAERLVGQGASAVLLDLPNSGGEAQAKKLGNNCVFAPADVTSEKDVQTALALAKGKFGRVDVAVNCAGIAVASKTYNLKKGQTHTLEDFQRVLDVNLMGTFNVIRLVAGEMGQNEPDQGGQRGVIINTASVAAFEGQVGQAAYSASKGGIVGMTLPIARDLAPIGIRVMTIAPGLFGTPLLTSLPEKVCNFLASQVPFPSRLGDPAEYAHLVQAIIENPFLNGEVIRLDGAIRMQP
Description: ELISA; semi-quantitative sandwich ELISA on human cerebrospinal fluid (controls, MCI-others, MCI-AD, ADD, FTLD); capture by anti-17β-HSD10 antibody, detection by anti-cypD antibody; values in percent of internal standards.

The target in assay [2] is T2, 17β-hydroxysteroid dehydrogenase type 10 of rat brain mitochondria (rat (endogenous in brain mitochondria)) (UniProt O70351).
T2 sequence: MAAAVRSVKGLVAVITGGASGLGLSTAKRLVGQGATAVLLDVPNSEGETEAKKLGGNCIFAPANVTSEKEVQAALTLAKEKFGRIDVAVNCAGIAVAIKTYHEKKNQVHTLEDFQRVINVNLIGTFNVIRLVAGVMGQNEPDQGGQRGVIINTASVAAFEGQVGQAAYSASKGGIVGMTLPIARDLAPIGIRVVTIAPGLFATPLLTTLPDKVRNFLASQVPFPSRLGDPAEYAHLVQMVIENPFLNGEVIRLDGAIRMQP
Description: ELISA; semi-quantitative sandwich ELISA on rat brain mitochondrial fraction (10 WT and 10 Tg McGill-R-Thy1-APP rats) with n-dodecyl β-D-maltoside; capture by anti-17β-HSD10 antibody, detection by anti-cypD or anti-Aβ 13-28 antibody; values in percent of internal standards.

Assay [3] addresses human full length recombinant 17β-hydroxysteroid dehydrogenase type 10 protein (His tag) (human) (UniProt Q99714). Nature of the assay: co-IP; mix of the two recombinant proteins, 20 µg/ml each in PBS, 2 h at room temperature; precipitated with anti-17β-HSD10 or anti-cypD antibody and Protein A-sepharose; immunoblot for the other protein; both purified.

Turning to “cyclophilin D of human cerebrospinal fluid (from UniProt P30405 30-207)”, the binding entry in assay [1] is reported as “binds”.

Turning to “cyclophilin D of rat brain mitochondria (from UniProt P29117 30-206)”, the binding result in assay [2] was “binds”.

Take “human full length cyclophilin D protein (His tag) (from UniProt P30405 30-207) (enzyme)”: the binding result in assay [3] is on record as “binds”.

These data come from PMC7078148.
